The supplement of paper PMC10849652
Some of the results follow. Residues, ends and D or L forms follow the SMILES beside them. *: point of attachment. Cbz = O=C(OCc1ccccc1)*

Chains of the proteins cited; added tags and fusions are not shown. Lines headed by an entry give the natural chain unless they say otherwise; changes in a name come on top.
UniProt Q4G0F5, whole entry, looked up: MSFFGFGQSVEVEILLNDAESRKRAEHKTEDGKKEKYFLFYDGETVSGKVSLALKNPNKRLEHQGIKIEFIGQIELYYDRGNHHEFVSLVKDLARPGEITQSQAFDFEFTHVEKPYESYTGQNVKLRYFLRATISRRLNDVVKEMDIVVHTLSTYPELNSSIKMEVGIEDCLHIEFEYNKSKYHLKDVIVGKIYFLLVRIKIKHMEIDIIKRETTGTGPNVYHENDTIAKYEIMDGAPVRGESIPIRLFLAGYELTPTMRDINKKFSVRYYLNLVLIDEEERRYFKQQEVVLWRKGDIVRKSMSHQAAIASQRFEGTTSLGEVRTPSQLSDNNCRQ
UniProt Q8N2E2: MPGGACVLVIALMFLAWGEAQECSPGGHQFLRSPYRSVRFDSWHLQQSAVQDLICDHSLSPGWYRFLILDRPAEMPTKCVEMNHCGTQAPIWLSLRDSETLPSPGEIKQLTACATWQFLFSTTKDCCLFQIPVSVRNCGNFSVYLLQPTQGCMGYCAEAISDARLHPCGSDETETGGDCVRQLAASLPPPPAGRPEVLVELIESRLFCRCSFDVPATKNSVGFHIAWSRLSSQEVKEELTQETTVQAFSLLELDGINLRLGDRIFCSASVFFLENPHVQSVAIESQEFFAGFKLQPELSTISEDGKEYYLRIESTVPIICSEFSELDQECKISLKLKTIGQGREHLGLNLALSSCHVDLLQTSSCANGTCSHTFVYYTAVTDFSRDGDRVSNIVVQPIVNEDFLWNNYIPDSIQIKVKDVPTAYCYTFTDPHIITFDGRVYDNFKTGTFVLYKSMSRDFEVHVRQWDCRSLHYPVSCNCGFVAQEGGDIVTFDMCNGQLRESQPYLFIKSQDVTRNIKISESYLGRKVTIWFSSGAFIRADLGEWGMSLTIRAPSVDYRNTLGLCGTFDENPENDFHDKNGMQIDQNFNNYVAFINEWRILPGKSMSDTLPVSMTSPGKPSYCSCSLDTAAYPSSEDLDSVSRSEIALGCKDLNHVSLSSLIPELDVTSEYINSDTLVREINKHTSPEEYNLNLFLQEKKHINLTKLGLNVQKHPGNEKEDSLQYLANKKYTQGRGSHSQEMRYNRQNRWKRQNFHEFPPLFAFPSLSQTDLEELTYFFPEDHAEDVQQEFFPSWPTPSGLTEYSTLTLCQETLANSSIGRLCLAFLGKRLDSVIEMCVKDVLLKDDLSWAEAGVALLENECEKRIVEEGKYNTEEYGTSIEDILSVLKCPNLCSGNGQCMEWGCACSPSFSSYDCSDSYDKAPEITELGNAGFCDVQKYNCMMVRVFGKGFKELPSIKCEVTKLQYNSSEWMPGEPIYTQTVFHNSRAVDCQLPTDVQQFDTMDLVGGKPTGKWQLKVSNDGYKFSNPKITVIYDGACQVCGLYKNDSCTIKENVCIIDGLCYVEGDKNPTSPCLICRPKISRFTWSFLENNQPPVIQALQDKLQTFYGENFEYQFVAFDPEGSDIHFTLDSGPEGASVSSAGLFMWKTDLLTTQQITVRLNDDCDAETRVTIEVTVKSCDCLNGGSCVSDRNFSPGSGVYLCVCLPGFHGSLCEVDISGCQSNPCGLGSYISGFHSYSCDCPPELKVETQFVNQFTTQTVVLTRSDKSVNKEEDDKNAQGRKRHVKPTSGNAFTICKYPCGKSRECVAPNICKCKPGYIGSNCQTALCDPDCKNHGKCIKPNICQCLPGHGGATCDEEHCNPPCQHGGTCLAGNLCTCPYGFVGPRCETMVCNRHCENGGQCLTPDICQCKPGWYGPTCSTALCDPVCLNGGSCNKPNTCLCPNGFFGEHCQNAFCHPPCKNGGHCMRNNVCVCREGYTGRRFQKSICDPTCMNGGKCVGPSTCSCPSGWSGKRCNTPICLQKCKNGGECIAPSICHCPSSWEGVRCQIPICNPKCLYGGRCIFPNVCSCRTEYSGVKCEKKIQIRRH
UniProt Q92558: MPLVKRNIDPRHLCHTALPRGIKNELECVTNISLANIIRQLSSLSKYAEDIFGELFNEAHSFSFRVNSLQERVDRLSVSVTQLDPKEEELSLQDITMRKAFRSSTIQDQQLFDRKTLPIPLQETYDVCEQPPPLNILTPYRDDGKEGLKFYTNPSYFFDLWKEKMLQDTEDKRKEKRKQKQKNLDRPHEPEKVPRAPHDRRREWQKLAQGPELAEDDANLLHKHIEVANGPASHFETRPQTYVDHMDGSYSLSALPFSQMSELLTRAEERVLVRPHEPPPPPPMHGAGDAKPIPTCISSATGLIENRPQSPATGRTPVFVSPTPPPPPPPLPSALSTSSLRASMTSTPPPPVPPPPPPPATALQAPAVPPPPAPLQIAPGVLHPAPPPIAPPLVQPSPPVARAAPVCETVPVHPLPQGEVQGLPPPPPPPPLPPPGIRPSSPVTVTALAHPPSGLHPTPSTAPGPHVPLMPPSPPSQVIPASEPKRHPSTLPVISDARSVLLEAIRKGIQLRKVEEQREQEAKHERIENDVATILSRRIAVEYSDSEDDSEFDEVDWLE
UniProt Q9Y4P8: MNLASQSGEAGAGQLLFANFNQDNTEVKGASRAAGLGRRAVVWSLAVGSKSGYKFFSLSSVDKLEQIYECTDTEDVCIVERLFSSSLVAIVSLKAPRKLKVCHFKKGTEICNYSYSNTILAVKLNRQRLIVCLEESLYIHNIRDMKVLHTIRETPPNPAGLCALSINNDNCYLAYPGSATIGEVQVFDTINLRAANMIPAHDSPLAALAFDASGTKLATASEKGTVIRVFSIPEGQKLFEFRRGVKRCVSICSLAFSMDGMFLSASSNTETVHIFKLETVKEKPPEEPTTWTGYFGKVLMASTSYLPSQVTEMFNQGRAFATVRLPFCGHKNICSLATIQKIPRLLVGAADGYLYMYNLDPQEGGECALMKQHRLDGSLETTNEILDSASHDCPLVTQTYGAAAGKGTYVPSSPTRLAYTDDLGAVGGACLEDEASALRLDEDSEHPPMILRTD
UniProt Q6PJI9: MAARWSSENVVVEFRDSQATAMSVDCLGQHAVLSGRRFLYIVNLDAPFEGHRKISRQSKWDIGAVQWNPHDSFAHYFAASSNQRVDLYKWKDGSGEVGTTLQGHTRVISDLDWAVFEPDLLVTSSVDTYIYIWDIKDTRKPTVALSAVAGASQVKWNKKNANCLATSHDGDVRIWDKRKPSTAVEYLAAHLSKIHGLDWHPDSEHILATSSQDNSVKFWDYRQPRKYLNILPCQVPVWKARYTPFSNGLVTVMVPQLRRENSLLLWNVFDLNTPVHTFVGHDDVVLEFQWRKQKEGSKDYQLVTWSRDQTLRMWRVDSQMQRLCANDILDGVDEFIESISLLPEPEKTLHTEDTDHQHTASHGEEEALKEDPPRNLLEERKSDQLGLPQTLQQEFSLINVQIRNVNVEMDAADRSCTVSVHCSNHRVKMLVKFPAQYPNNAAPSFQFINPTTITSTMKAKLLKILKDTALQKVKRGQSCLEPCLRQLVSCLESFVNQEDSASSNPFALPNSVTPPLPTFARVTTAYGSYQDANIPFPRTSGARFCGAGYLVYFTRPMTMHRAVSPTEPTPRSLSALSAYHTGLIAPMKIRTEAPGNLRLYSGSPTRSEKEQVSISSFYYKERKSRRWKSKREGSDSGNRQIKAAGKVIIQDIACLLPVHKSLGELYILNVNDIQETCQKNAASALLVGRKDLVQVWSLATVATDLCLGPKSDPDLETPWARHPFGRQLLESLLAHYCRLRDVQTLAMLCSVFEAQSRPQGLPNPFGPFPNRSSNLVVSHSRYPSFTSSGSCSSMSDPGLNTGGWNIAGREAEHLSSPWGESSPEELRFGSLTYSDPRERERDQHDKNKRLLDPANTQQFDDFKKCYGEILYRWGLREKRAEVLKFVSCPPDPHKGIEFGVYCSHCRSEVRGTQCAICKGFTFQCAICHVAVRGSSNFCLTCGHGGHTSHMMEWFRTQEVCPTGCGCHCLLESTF
UniProt Q9BRG1: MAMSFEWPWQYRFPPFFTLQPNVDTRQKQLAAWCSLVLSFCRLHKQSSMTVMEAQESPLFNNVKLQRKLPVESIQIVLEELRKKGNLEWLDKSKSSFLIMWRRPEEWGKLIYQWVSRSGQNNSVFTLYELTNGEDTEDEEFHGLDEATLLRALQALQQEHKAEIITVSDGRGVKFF
UniProt A6NGB9: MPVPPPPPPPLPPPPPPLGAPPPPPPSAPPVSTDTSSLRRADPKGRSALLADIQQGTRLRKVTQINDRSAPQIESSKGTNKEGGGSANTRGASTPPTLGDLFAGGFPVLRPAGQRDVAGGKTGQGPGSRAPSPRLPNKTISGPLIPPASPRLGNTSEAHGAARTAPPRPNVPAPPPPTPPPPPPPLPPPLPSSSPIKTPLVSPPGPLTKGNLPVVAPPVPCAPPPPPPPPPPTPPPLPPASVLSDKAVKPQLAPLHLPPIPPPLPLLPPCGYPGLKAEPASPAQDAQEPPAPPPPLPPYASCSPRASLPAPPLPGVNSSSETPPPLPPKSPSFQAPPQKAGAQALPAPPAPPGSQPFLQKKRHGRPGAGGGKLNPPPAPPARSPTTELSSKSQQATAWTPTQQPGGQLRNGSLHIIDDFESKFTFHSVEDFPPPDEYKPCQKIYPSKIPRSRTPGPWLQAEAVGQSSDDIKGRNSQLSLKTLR
UniProt Q8TBZ3: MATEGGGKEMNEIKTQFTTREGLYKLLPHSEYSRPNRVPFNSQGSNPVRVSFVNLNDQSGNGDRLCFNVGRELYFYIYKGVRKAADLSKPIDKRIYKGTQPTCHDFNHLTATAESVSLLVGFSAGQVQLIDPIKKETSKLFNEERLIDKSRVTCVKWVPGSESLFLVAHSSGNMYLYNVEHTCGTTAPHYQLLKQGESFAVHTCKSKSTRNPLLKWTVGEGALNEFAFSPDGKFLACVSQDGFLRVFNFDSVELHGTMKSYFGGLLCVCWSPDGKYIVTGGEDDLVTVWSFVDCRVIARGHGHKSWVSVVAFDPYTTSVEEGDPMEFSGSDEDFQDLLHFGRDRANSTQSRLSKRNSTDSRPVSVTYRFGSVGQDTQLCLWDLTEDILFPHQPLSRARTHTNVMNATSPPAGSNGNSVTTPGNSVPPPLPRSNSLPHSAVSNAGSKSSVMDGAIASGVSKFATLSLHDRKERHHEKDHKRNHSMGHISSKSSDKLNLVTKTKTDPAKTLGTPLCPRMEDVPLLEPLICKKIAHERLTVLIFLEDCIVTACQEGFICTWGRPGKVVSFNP
UniProt Q5MNZ6: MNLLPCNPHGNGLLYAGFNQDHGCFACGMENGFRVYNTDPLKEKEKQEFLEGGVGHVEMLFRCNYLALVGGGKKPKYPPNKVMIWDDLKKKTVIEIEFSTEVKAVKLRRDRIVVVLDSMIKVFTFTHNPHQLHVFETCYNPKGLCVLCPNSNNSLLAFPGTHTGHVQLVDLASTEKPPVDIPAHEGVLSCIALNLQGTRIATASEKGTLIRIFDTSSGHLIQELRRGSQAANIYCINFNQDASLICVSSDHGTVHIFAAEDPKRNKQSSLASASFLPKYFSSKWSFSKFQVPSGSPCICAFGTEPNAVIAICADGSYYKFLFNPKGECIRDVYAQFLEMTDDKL
UniProt Q8IWB7: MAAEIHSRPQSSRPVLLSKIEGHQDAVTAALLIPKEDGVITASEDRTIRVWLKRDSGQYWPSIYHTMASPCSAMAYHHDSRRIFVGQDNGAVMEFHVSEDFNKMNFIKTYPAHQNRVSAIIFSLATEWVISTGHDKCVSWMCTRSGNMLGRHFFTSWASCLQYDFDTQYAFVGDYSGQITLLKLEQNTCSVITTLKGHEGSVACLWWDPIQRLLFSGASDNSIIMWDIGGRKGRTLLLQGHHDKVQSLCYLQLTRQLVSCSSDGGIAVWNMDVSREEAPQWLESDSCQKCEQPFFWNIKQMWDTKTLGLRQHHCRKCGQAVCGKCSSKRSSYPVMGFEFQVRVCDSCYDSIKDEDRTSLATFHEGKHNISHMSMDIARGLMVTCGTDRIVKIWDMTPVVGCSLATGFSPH
UniProt Q9H6Y2: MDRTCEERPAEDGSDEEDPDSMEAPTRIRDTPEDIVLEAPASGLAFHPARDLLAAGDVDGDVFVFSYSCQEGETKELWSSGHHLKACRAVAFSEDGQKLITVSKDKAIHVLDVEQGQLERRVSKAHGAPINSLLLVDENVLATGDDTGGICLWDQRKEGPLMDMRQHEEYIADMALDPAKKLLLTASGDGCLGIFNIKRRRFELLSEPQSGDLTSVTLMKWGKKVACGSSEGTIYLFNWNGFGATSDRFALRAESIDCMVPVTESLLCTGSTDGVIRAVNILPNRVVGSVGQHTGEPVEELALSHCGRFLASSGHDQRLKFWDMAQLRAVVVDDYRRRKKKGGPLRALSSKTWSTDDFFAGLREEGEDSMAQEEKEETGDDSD

Legend:
Assay in all cases: log2 fold change, soluble protein after heating vs DMSO (PISA); higher = thermal stabilisation; K562 cells, 10 uM, 30 min; active = over 0.2 and 3.5 SD of the protein, either way, in both replicates (recomputed)
erlotinib = compound: C#Cc1cccc(Nc2ncnc3cc(OCCOC)c(OCCOC)cc23)c1 [erlotinib]
Outline: (§1)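 Soluble protein was quantified by TMTpro 16plex LC-MS/MS after channel sums were equalised. It was obtained as the supernatant after 21,000xg for 90 min from pooled aliquots of K562 cells (2×10^6 cells/mL, 10 μM compound, 30 min) heated for 3 min across 48°C-58°C and extracted in PBS with 0.5% NP-40 at 4°C. Thermal stability values are relative to control samples and come from duplicates. They are given as log2 fold changes.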

[1] = compound: C/C(=N\NC(=O)C1=CC(=CC=C1)S(=O)(=O)N2CCOCC2)/C3=C(C=CC(=C3)Cl)O
Outline: as §1

[2] = compound: C1=CC(=C(C=C1Cl)C2=NC3=NC=CN=C3C(=N2)NC4=CC=NC=C4)F
Outline: as §1

[3] = compound: C1=CC(=CC=C1C2=NC3=C(N2)C=C(C=C3)C(=O)N)OC4=CC=C(C=C4)Cl
Outline: as §1

[4] = compound: C1=CC2=C(C=CC(=C2)/C=C\3/C(=O)NC(=NCC4=CC=CS4)S3)N=C1
Outline: as §1

[5] = compound: C1=CC2=NC=CN=C2C=C1/C=C/3\C(=O)NC(=O)S3
Outline: as §1

[6] = compound: C1=CC=C(C=C1)C2=NC(=C(N2)C3=CC=NC=C3)C4=CC(=C(C=C4)Cl)O
Outline: as §1

[7] = compound: C1=CC=C2C(=C1)C3=NNC4=CC=CC(=C43)C2=O
Outline: as §1

[8] = compound: C1CCN(C1)C(=O)NC2=CC=CC(=C2)NC3=NC=C(C(=N3)NCCC4=CN=CN4)Br
Outline: as §1

[9] = compound: C1CN(CCC1(CC2=CC=C(C=C2)Cl)N)C3=NC=NC4=C3C=CN4
Outline: as §1

IRAK-1-4 Inhibitor I = compound: C1COCCN1CCN2C3=CC=CC=C3N=C2NC(=O)C4=CC(=CC=C4)[N+](=O)[O-] [IRAK-1-4 Inhibitor I]
Outline: as §1

ibrutinib = compound: C=CC(=O)N1CCC[C@@H](n2nc(-c3ccc(Oc4ccccc4)cc3)c3c(N)ncnc32)C1 [ibrutinib]
Outline: as §1

[10] = compound: CC(=O)c1cnc2ccc(-c3cc(Cl)c(O)c(Cl)c3)nc2c1N[C@H]1CC[C@H](CN(C)C)CC1
Outline: as §1

ralimetinib = compound: CC(C)(C)Cn1c(N)nc2ccc(-c3[nH]c(C(C)(C)C)nc3-c3ccc(F)cc3)nc21 [ralimetinib]
Outline: as §1

[11] = compound: CC(C)(O)CC(=O)NCCn1ccc2ncnc(Nc3ccc(Oc4cccc(C(F)(F)F)c4)c(Cl)c3)c21
Outline: as §1

[12] = compound: CC(C)C1=C2N=C(C=C(N2N=C1)NCC3=CC=CC=C3)NCCCCCCN
Outline: as §1

[13] = compound: CC(C)C[C@@H](C=O)NC(=O)[C@H](CC(C)C)NC(=O)[C@H](CC(C)C)NC(=O)OCc1ccccc1
Outline: as §1

pinometostat = compound: CC(C)N(C[C@H]1O[C@@H](n2cnc3c(N)ncnc32)[C@H](O)[C@@H]1O)[C@H]1C[C@@H](CCc2nc3cc(C(C)(C)C)ccc3[nH]2)C1 [pinometostat]
Outline: as §1

[14] = compound: CC1=C(C(CC(=O)N1)C2=CC=C(C=C2)C(F)(F)F)C(=O)NC3=C(C=C4C(=C3)C=NN4)F
Outline: as §1

[15] = compound: CC1=C(C2=C(C=C1)C(=O)C3=CC=CC=C3N2CCCN)C
Outline: as §1

Measured: log2 fold change

VPS26B (UniProt Q4G0F5)
inactive: erlotinib 0.023 | [1] 0.044 | [2] 0.045 | [3] 0.018 | [4] -0.005 | [5] 0.016 | [6] 0.057 | [7] 0 | [8] 0.021 | [9] 0.082 | IRAK-1-4 Inhibitor I 0.07 | ibrutinib -0.03 | [10] -0.024 | ralimetinib -0.022 | [11] 0.001 | [12] 0.058 | [13] -0.059 | pinometostat 0.022 | [14] -0.04 | [15] 0

VWDE (UniProt Q8N2E2)
inactive: erlotinib -0.001 | [1] -0.077 | [2] 0.011 | [3] 0.019 | [4] -0.031 | [5] 0 | [6] 0.023 | [7] -0.031 | [8] -0.016 | [9] 0.008 | IRAK-1-4 Inhibitor I -0.052 | ibrutinib -0.02 | [10] 0.032 | ralimetinib 0.045 | [11] -0.05 | [12] 0 | [13] 0.013 | pinometostat 0.054 | [14] 0.057 | [15] -0.049

VPS29 isoform 2 (UniProt Q9UBQ0)
inactive: erlotinib 0.014 | [1] -0.026 | [2] 0.073 | [3] 0.021 | [4] -0.014 | [5] 0.033 | [6] -0.015 | [7] -0.012 | [8] 0.022 | [9] 0.046 | IRAK-1-4 Inhibitor I 0.057 | ibrutinib -0.011 | [10] 0.022 | ralimetinib -0.061 | [11] -0.011 | [12] -0.005 | [13] -0.025 | pinometostat -0.016 | [14] 0.031 | [15] -0.023

WASF1 (UniProt Q92558)
inactive: erlotinib 0.034 | [1] -0.017 | [2] -0.017 | [3] 0.052 | [4] 0.033 | [5] 0.017 | [6] -0.118 | [7] 0.012 | [8] -0.023 | [9] 0.049 | IRAK-1-4 Inhibitor I 0.022 | ibrutinib 0 | [10] -0.156 | ralimetinib -0.109 | [11] -0.07 | [12] -0.037 | [13] 0.064 | pinometostat 0.023 | [14] 0.029 | [15] 0.034

WIPI2 (UniProt Q9Y4P8)
inactive: erlotinib 0.047 | [1] 0.051 | [2] 0 | [3] 0.026 | [4] 0.046 | [5] -0.126 | [6] 0.043 | [7] -0.061 | [8] 0.005 | [9] 0.054 | IRAK-1-4 Inhibitor I 0.037 | ibrutinib -0.006 | [10] -0.055 | ralimetinib -0.055 | [11] 0.053 | [12] 0.022 | [13] -0.023 | pinometostat 0.049 | [14] 0.016 | [15] 0.006

WDR59 (UniProt Q6PJI9)
inactive: erlotinib -0.001 | [1] 0.037 | [2] 0.108 | [3] 0.092 | [4] 0.166 | [5] -0.005 | [6] 0.018 | [7] 0.028 | [8] -0.029 | [9] -0.059 | IRAK-1-4 Inhibitor I 0.002 | ibrutinib 0.057 | [10] -0.033 | ralimetinib 0.001 | [11] 0.127 | [12] 0.085 | [13] 0.025 | pinometostat -0.009 | [14] 0.089 | [15] 0

VPS25 (UniProt Q9BRG1)
inactive: erlotinib -0.011 | [1] 0.101 | [2] 0.1 | [3] -0.012 | [4] 0.066 | [5] 0.015 | [6] 0.037 | [7] 0.04 | [8] 0.01 | [9] 0.011 | IRAK-1-4 Inhibitor I 0.005 | ibrutinib -0.022 | [10] -0.046 | ralimetinib -0.06 | [11] -0.068 | [12] 0.022 | [13] -0.055 | pinometostat -0.034 | [14] 0 | [15] 0.07

VPS13D (UniProt Q5THJ4)
inactive: erlotinib -0.041 | [1] -0.369 | [2] -0.195 | [3] 0.008 | [4] 0.334 | [5] -0.093 | [6] 0.034 | [7] 0.007 | [8] -0.142 | [9] -0.076 | IRAK-1-4 Inhibitor I -0.201 | ibrutinib -0.025 | [10] -0.108 | ralimetinib 0.076 | [11] 0.067 | [12] 0.286 | [13] 0.087 | pinometostat 0.254 | [14] 0.011 | [15] 0.006

VKORC1L1, A0A3B3ISV4
inactive: erlotinib -0.043 | [1] -0.009 | [2] 0.027 | [3] -0.008 | [4] 0.036 | [5] 0.01 | [6] 0.097 | [7] 0.031 | [8] -0.038 | [9] 0.042 | IRAK-1-4 Inhibitor I -0.044 | ibrutinib -0.033 | [10] -0.041 | ralimetinib -0.173 | [11] -0.049 | [12] 0.047 | [13] -0.156 | pinometostat -0.11 | [14] 0.032 | [15] 0.052

VEZT (UniProt Q9HBM0)
inactive: erlotinib -0.06 | [1] -0.069 | [2] 0.15 | [3] 0.065 | [4] 0.007 | [5] -0.067 | [6] -0.007 | [7] -0.045 | [8] -0.025 | [9] -0.025 | IRAK-1-4 Inhibitor I -0.041 | ibrutinib 0.197 | [10] 0.015 | ralimetinib -0.009 | [11] 0.002 | [12] -0.201 | [13] 0.149 | pinometostat -0.019 | [14] 0.041 | [15] -0.095

WIPF3 (UniProt A6NGB9)
inactive: erlotinib 0.036 | [1] -0.076 | [2] -0.041 | [3] -0.05 | [4] 0.005 | [5] 0.014 | [6] -0.067 | [7] -0.024 | [8] -0.033 | [9] 0.025 | IRAK-1-4 Inhibitor I 0.064 | ibrutinib -0.051 | [10] 0.111 | ralimetinib -0.047 | [11] 0.046 | [12] 0.076 | [13] 0.107 | pinometostat 0.001 | [14] -0.022 | [15] 0.049

WDR20 isoform 7 (UniProt Q8TBZ3)
inactive: erlotinib 0.014 | [1] 0.019 | [2] -0.044 | [3] 0.068 | [4] 0.05 | [5] 0.194 | [6] 0.012 | [7] -0.152 | [8] -0.038 | [9] 0.015 | IRAK-1-4 Inhibitor I -0.069 | ibrutinib -0.026 | [10] -0.061 | ralimetinib 0.015 | [11] 0.156 | [12] 0.013 | [13] 0.006 | pinometostat 0.034 | [14] 0.031 | [15] 0.104

WDR45B (UniProt Q5MNZ6)
inactive: erlotinib 0.053 | [1] 0.031 | [2] 0.036 | [3] 0.025 | [4] -0.015 | [5] 0.03 | [6] -0.043 | [7] -0.071 | [8] -0.049 | [9] 0.064 | IRAK-1-4 Inhibitor I 0.053 | ibrutinib 0.02 | [10] 0.015 | ralimetinib -0.082 | [11] 0.047 | [12] 0.034 | [13] 0.025 | pinometostat -0.008 | [14] 0.02 | [15] 0.044

WDFY1 (UniProt Q8IWB7)
inactive: erlotinib 0.006 | [1] 0.031 | [2] 0.039 | [3] 0.012 | [4] -0.056 | [5] 0.034 | [6] -0.016 | [7] -0.099 | [8] 0.018 | [9] 0.083 | IRAK-1-4 Inhibitor I 0.053 | ibrutinib -0.022 | [10] 0.028 | ralimetinib -0.022 | [11] -0.01 | [12] 0.039 | [13] 0.004 | pinometostat 0.007 | [14] 0.022 | [15] -0.015

WDR55 (UniProt Q9H6Y2)
inactive: erlotinib -0.026 | [1] 0.037 | [2] 0.015 | [3] 0.009 | [4] 0.035 | [5] 0.008 | [6] 0.007 | [7] 0.007 | [8] -0.005 | [9] 0.053 | IRAK-1-4 Inhibitor I 0.014 | ibrutinib -0.007 | [10] -0.028 | ralimetinib -0.031 | [11] 0.056 | [12] 0.004 | [13] -0.015 | pinometostat -0.029 | [14] -0.001 | [15] -0.039

3 neighbouring records from above, quoted:
WDR45B (UniProt Q5MNZ6)
inactive: erlotinib 0.053 | [1] 0.031 | [2] 0.036 | [3] 0.025 | [4] -0.015 | [5] 0.03 | [6] -0.043 | [7] -0.071 | [8] -0.049 | [9] 0.064 | IRAK-1-4 Inhibitor I 0.053 | ibrutinib 0.02 | [10] 0.015 | ralimetinib -0.082 | [11] 0.047 | [12] 0.034 | [13] 0.025 | pinometostat -0.008 | [14] 0.02 | [15] 0.044

WDFY1 (UniProt Q8IWB7)
inactive: erlotinib 0.006 | [1] 0.031 | [2] 0.039 | [3] 0.012 | [4] -0.056 | [5] 0.034 | [6] -0.016 | [7] -0.099 | [8] 0.018 | [9] 0.083 | IRAK-1-4 Inhibitor I 0.053 | ibrutinib -0.022 | [10] 0.028 | ralimetinib -0.022 | [11] -0.01 | [12] 0.039 | [13] 0.004 | pinometostat 0.007 | [14] 0.022 | [15] -0.015

WDR55 (UniProt Q9H6Y2)
inactive: erlotinib -0.026 | [1] 0.037 | [2] 0.015 | [3] 0.009 | [4] 0.035 | [5] 0.008 | [6] 0.007 | [7] 0.007 | [8] -0.005 | [9] 0.053 | IRAK-1-4 Inhibitor I 0.014 | ibrutinib -0.007 | [10] -0.028 | ralimetinib -0.031 | [11] 0.056 | [12] 0.004 | [13] -0.015 | pinometostat -0.029 | [14] -0.001 | [15] -0.039

More records follow.

WDR3 (UniProt Q9UNX4)
inactive: erlotinib -0.022 | [1] -0.171 | [2] -0.426 | [3] 0.114 | [4] -0.039 | [5] 0.008 | [6] 0.117 | [7] 0.121 | [8] 0.085 | [9] -0.231 | IRAK-1-4 Inhibitor I -0.155 | ibrutinib 0.063 | [10] 0.029 | ralimetinib 0.273 | [11] 0.084 | [12] -0.006 | [13] 0.231 | pinometostat 0.341 | [14] -0.025 | [15] -0.165
